Data as given in patent US11753432B2, “Compound with analgesic effect for use in prevention and treatment of pain” (Academia Sinica, priority 2017, dated 2023).
Some entries share one result that the patent states for a list of compounds.

Experiments:
Solubility = assay type: physicochemical; details: compared with T1-11
[1] = Tolerated dose / safety range in the ICS mouse model; assay type: in vivo; details: compared with T1-11
Method: Female C57BL/6JNarl mice aged 8-12 weeks were purchased from the National Laboratory Animal Center (Taipei, Taiwan). […] Mechanical hyperalgesia was assayed by testing the withdrawal response of mouse hindpaws to 0.2-mN von Frey filament stimulation.

SMILES | better solubility than T1-11, up to (Solubility) | wider safety ranges than T1-11, up to [1]
O=C(O)CNC(=O)OC[C@H]1O[C@@H](n2cnc3c(NCc4ccc(O)cc4)ncnc32)C(O)C1O (stereo partly drawn) [I-a1, 5′-O-(Glycine-N-carbonyl)-N^6-(4-hydroxybenzyl)adenosine] | up to 64 mg/kg | 
O=C(O)CNC(=O)NC[C@H]1O[C@@H](n2cnc3c(NCc4ccc(O)cc4)ncnc32)C(O)C1O (stereo partly drawn) [I-d1, 5′-Deoxy-5′-(glycine-N-amido)-N^6-(4-hydroxybenzyl)adenosine] | up to 64 mg/kg | up to 64 mg/kg
